# This is one part of the list.
# By UniProt entry, the sequences of proteins in these tests, tags left out. Where a name states a change or a piece, a line headed by the entry shows the natural chain unless it says otherwise.
# UniProt P55809: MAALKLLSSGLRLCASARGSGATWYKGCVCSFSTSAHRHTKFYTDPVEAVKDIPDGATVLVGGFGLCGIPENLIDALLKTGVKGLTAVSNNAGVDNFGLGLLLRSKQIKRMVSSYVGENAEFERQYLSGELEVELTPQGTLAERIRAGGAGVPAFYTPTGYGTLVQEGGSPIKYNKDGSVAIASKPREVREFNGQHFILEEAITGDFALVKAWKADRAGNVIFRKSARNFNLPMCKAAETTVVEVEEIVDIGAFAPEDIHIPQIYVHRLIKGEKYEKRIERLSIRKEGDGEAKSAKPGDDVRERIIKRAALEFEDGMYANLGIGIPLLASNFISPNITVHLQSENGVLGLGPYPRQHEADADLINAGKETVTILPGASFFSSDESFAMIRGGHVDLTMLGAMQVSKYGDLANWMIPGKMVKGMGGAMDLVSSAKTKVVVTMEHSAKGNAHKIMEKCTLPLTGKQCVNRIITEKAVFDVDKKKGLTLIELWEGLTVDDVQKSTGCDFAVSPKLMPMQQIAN
# UniProt P22059, whole entry, looked up: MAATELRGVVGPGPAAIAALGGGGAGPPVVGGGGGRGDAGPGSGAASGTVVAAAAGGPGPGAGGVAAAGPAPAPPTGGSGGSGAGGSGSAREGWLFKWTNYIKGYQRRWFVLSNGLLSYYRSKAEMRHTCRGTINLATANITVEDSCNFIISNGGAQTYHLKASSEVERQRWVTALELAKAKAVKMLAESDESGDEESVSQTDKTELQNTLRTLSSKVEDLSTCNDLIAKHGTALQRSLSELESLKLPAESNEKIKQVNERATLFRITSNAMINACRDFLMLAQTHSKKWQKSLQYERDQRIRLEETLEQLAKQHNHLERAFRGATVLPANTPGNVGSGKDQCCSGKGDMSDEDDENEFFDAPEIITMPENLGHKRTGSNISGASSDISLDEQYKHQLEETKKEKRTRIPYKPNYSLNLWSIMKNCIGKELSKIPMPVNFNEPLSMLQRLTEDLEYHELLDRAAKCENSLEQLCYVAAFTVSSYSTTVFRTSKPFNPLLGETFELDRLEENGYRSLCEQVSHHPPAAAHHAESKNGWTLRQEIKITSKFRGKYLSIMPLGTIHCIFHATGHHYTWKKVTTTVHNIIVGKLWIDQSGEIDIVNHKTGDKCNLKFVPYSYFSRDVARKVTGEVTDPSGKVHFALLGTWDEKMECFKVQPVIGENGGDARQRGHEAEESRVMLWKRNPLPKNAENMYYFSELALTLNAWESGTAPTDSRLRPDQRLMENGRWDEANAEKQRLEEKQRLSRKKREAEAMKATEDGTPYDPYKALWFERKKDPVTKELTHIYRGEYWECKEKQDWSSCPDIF
# UniProt A6NDB9: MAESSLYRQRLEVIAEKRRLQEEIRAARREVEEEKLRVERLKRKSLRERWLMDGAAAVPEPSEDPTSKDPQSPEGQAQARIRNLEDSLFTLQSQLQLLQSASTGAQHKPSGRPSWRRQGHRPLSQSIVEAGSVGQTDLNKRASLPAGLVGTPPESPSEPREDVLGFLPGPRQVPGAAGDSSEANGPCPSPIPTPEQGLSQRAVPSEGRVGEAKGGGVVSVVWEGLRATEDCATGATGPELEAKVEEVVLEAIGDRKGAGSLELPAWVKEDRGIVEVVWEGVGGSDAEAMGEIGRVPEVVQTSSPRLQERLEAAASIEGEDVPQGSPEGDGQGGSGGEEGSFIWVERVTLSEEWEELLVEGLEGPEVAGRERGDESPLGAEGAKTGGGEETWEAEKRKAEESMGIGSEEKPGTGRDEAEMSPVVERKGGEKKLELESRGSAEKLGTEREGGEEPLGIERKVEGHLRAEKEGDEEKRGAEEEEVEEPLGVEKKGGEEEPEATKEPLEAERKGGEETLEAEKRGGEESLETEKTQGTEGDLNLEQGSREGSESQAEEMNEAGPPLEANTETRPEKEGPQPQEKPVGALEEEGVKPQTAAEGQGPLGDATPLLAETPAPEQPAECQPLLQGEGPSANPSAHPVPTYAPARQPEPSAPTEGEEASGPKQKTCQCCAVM
# UniProt Q504Q3: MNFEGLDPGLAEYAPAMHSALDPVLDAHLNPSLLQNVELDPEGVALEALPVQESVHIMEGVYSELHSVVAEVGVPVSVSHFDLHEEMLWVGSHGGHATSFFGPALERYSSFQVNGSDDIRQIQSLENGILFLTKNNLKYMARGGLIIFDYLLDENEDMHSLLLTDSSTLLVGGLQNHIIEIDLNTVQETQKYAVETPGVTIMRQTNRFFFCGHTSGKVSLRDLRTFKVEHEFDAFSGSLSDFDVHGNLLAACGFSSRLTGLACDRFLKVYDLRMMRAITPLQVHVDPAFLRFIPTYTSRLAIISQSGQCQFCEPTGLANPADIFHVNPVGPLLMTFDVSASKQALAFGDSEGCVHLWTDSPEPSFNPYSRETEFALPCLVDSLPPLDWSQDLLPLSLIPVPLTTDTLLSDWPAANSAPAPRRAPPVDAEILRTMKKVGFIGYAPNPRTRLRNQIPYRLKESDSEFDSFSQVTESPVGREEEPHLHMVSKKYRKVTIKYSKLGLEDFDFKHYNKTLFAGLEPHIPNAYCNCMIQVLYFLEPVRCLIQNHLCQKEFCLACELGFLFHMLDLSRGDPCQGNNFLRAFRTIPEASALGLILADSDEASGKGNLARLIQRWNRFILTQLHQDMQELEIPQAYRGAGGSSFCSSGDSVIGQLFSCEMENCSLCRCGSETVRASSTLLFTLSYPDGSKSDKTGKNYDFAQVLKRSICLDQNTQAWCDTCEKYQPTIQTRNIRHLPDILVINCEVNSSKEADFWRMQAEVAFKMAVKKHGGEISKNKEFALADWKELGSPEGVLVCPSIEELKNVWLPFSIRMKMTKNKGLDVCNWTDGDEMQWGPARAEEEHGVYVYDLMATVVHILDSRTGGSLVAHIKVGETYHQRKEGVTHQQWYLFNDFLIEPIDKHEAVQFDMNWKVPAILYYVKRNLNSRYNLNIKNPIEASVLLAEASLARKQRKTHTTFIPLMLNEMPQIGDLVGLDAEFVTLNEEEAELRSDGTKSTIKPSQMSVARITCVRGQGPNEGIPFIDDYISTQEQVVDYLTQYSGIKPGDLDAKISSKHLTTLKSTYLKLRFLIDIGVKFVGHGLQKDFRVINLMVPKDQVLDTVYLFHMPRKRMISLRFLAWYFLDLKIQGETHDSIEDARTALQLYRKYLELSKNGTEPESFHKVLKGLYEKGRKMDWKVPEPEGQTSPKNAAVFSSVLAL
# UniProt Q9NRP0: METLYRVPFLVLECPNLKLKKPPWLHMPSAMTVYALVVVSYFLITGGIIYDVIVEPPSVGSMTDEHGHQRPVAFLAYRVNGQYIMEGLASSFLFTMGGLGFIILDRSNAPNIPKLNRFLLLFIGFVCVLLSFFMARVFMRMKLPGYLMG
# UniProt O60313: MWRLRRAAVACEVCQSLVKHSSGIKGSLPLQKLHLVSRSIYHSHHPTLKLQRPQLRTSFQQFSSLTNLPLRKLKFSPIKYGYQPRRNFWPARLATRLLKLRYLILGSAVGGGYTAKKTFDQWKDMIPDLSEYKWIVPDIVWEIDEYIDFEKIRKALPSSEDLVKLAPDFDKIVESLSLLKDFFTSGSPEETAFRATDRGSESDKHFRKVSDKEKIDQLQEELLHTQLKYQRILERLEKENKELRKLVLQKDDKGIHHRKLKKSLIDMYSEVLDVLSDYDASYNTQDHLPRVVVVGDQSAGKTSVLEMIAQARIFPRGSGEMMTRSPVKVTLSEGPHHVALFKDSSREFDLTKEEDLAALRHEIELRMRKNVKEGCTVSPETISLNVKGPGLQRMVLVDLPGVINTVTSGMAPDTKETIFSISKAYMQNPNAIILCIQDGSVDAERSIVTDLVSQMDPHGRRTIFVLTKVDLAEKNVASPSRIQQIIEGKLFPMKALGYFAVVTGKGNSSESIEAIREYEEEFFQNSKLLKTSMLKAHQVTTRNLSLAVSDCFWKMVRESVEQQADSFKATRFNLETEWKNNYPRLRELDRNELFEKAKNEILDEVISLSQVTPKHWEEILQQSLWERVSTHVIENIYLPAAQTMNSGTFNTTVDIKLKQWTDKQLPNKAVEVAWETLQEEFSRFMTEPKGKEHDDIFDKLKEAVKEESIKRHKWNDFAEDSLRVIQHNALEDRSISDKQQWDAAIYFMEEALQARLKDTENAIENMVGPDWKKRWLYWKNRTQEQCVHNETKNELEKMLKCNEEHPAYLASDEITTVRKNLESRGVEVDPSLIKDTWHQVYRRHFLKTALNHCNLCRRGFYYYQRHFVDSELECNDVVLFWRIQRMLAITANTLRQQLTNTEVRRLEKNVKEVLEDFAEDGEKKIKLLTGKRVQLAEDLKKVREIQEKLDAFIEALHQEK
# UniProt Q9NZT2: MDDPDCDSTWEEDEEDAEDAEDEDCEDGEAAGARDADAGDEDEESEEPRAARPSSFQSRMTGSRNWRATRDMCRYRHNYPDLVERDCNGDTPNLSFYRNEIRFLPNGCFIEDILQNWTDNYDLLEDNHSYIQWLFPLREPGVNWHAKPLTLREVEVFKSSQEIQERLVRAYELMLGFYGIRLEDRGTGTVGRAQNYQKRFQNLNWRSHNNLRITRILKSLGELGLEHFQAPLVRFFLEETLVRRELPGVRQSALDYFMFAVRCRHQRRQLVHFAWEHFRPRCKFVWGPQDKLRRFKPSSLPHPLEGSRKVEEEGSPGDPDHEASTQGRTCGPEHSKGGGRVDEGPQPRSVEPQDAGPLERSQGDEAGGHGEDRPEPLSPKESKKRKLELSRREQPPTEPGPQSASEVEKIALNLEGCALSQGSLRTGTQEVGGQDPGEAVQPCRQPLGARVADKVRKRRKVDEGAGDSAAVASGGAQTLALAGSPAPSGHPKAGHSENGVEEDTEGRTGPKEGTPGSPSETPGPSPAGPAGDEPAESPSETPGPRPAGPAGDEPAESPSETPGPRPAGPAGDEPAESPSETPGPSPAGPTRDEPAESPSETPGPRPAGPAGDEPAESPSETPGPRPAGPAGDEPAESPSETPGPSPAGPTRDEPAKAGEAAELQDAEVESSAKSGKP
# UniProt Q9BPZ3: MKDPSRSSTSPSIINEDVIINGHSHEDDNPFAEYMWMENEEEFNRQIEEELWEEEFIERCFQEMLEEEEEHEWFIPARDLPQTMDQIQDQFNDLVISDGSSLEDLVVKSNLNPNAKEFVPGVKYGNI
# UniProt Q9H074: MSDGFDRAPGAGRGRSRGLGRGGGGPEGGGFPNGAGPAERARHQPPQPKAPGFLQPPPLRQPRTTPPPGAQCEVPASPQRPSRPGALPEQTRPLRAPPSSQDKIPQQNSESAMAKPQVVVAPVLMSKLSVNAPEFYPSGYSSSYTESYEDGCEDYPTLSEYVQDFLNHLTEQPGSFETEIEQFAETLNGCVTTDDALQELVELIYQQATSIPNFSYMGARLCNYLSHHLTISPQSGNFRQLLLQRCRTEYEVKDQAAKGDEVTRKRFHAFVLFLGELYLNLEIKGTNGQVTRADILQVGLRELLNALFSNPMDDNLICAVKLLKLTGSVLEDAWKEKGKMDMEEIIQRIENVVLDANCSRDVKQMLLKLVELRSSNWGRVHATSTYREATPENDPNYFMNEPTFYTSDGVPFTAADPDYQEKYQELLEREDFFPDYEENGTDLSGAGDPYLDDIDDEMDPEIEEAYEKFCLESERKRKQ
# UniProt Q9BZF3: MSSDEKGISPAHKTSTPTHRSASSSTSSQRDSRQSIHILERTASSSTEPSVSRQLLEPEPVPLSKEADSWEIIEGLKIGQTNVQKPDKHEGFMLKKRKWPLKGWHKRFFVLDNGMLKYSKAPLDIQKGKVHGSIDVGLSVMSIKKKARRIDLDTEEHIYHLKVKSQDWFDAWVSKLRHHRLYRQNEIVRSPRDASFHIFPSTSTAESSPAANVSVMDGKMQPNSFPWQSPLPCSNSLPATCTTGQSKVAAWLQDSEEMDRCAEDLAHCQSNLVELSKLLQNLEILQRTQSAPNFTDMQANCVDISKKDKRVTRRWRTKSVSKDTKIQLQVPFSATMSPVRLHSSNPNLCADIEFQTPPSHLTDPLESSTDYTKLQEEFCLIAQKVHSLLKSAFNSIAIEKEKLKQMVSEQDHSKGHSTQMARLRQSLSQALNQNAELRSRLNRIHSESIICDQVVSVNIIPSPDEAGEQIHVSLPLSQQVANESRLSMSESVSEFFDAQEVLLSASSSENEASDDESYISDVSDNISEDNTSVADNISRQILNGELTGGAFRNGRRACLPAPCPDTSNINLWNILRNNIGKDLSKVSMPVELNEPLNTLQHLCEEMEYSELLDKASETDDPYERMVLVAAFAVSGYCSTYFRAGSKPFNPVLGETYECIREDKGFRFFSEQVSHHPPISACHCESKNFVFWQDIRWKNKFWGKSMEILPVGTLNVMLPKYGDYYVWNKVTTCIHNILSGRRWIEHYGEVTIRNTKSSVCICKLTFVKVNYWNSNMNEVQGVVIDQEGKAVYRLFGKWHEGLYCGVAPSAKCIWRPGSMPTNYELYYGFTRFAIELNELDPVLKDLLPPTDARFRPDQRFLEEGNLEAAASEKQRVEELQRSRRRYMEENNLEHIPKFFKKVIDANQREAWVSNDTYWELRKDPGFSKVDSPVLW
# How the values were obtained:
# Experiment in all cases: log2 fold change, soluble protein after heating vs DMSO (PISA); higher = thermal stabilisation; K562 lysate, 10 uM; active = over 0.2 and 3.5 SD of the protein, either way, in both replicates (recomputed)
# [1] = compound: CS(=O)(=O)CCNCc1ccc(-c2ccc3ncnc(Nc4ccc(OCc5cccc(F)c5)c(Cl)c4)c3c2)o1 [lapatinib]
# Procedure, shortened: (§1)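 Log-two fold change in thermal stability relative to solvent controls is reported from duplicates. For each sample, crude K562 extract from dounce-homogenised pellets in PBS pH 7.4 with 1 mM MgCl2, at 1 mg/mL protein, was treated with 10 μM compound for 30 min. Aliquots heated for 3 min across 48°C-58°C were pooled, brought to 0.5% NP-40 at 4°C and cleared at 21,000xg for 90 min. The supernatant was quantified by TMTpro 16plex LC-MS/MS with channel sums equalised.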
# [2] = compound: CS(=O)(=O)N1CCN(Cc2cc3nc(-c4cccc5[nH]ncc45)nc(N4CCOCC4)c3s2)CC1 [pictilisib]
# Procedure, shortened: as §1
# [3] = compound: C[C@@H](Oc1cc(-c2cnn(C3CCNCC3)c2)cnc1N)c1c(Cl)ccc(F)c1Cl [crizotinib]
# Procedure, shortened: as §1
# [4] = compound: C[C@H](C1=CC=C(C=C1)C(=O)NC2=C3C=CNC3=NC=C2)N
# Procedure, shortened: as §1
# [5] = compound: C[C@H](Nc1ncnc2nc[nH]c12)c1cc2cccc(Cl)c2c(=O)n1-c1ccccc1 [duvelisib]
# Procedure, shortened: as §1
# [6] = compound: Cc1cc(Nc2cc(CN3CCOCC3)c3nc(C)c(Cc4ccc(Cl)cc4F)n3n2)n[nH]1 [gandotinib]
# Procedure, shortened: as §1
# [7] = compound: Cc1cc(Nc2cc(N3CCN(C)CC3)nc(Sc3ccc(NC(=O)C4CC4)cc3)n2)n[nH]1 [tozasertib]
# Procedure, shortened: as §1
# [8] = compound: Cc1ccc(-n2nc(C(C)(C)C)cc2NC(=O)Nc2ccc(OCCN3CCOCC3)c3ccccc23)cc1 [doramapimod]
# Procedure, shortened: as §1
# [9] = compound: Cc1ccc(NC(=O)c2ccc(CN3CC[C@H](N(C)C)C3)c(C(F)(F)F)c2)cc1Nc1nccc(-c2cncnc2)n1 [bafetinib]
# Procedure, shortened: as §1
# [10] = compound: Cc1cccc(CC(=O)N2CCc3c2ccc(-c2cn(C)c4ncnc(N)c24)c3F)n1
# Procedure, shortened: as §1
# [11] = compound: Cc1cn(-c2cc(NC(=O)c3ccc(C)c(Nc4nccc(-c5cccnc5)n4)c3)cc(C(F)(F)F)c2)cn1 [nilotinib]
# Procedure, shortened: as §1
# [12] = compound: Cc1nc(Nc2n[nH]c3c2CN(C(=O)N[C@H](CN(C)C)c2ccccc2)C3(C)C)c2sccc2n1
# Procedure, shortened: as §1
# [13] = compound: Cc1nc(Nc2ncc(C(=O)Nc3c(C)cccc3Cl)s2)cc(N2CCN(CCO)CC2)n1 [dasatinib]
# Procedure, shortened: as §1
# [14] = compound: Cc1ncc(-c2ccnc(Nc3ccc(S(C)(=O)=O)cc3)n2)n1C(C)C
# Procedure, shortened: as §1
# [15] = compound: Cn1cc(-c2ccc3c(c2)CCN3C(=O)Cc2cccc(C(F)(F)F)c2)c2c(N)ncnc21
# Procedure, shortened: as §1
# [16] = compound: Cn1cc(CNCC2CCN(c3ncc(C(=O)NO)cn3)CC2)c2ccccc21 [quisinostat]
# Procedure, shortened: as §1
# [17] = compound: Cn1cncc1[C@@](N)(c1ccc(Cl)cc1)c1ccc2c(c1)c(-c1cccc(Cl)c1)cc(=O)n2C [tipifarnib]
# Procedure, shortened: as §1
# [18] = compound: NC(=O)Nc1cc(-c2cccc(F)c2)sc1C(=O)N[C@H]1CCCNC1
# Procedure, shortened: as §1
# [19] = compound: NC(=O)c1cnc(N[C@@H]2CCCC[C@@H]2N)nc1Nc1cccc(-n2nccn2)c1
# Procedure, shortened: as §1
# [20] = compound: NC1(c2ccc(-c3nc4ccn5c(=O)[nH]nc5c4cc3-c3ccccc3)cc2)CCC1
# Procedure, shortened: as §1
Target,log2 fold change [1],log2 fold change [2],log2 fold change [3],log2 fold change [4],log2 fold change [5],log2 fold change [6],log2 fold change [7],log2 fold change [8],log2 fold change [9],log2 fold change [10],log2 fold change [11],log2 fold change [12],log2 fold change [13],log2 fold change [14],log2 fold change [15],log2 fold change [16],log2 fold change [17],log2 fold change [18],log2 fold change [19],log2 fold change [20]
OXCT1 (UniProt P55809),inactive: 0.001,inactive: -0.036,inactive: 0.013,inactive: 0.003,inactive: -0.006,inactive: -0.003,inactive: -0.01,inactive: -0.016,inactive: 0.015,inactive: -0.026,inactive: 0.018,inactive: 0,inactive: -0.022,inactive: 0.029,inactive: 0.001,inactive: 0.021,inactive: 0.033,inactive: 0.014,inactive: -0.008,inactive: -0.004
OSBP (UniProt P22059),inactive: -0.101,inactive: -0.046,inactive: 0.007,inactive: 0,inactive: 0.037,inactive: -0.072,inactive: -0.015,inactive: -0.028,inactive: -0.093,inactive: 0.03,inactive: -0.073,inactive: 0.005,active: -0.221,inactive: -0.015,inactive: -0.011,inactive: 0,inactive: 0.042,inactive: 0.012,inactive: 0.031,inactive: 0.04
OTUD7B (UniProt Q6GQQ9),inactive: 0.033,inactive: 0.025,inactive: -0.099,inactive: 0.006,inactive: -0.041,inactive: 0.032,inactive: -0.01,inactive: -0.012,inactive: -0.003,inactive: 0.003,inactive: -0.017,inactive: 0.017,inactive: 0.005,inactive: 0.03,inactive: 0.027,inactive: -0.252,inactive: 0.05,inactive: 0.142,inactive: 0.026,inactive: -0.095
PALM3 (UniProt A6NDB9),inactive: 0.048,inactive: -0.102,inactive: -0.004,inactive: -0.122,inactive: -0.019,inactive: 0.015,inactive: -0.038,inactive: 0.037,inactive: 0.053,inactive: 0.023,inactive: -0.02,inactive: 0.029,inactive: 0.031,inactive: 0.073,inactive: -0.004,inactive: 0.024,inactive: -0.033,inactive: 0.003,inactive: 0.033,inactive: 0.008
PAN2 isoform 2 (UniProt Q504Q3),inactive: -0.044,inactive: 0.045,inactive: -0.085,inactive: 0.003,inactive: 0.041,inactive: -0.053,active: 0.27,inactive: 0.09,inactive: -0.108,inactive: 0.084,inactive: 0.072,inactive: 0.013,inactive: -0.012,inactive: 0.046,inactive: 0.079,inactive: -0.036,inactive: -0.049,inactive: 0.056,inactive: 0.02,inactive: -0.028
OSTC isoform 2 (UniProt Q9NRP0),inactive: -0.066,inactive: -0.038,inactive: -0.116,inactive: -0.016,inactive: -0.012,inactive: -0.027,inactive: -0.019,inactive: -0.032,inactive: 0.009,inactive: 0.203,inactive: -0.003,inactive: 0.015,inactive: -0.072,inactive: 0.031,inactive: -0.05,inactive: -0.106,inactive: -0.037,inactive: 0.045,inactive: 0.023,inactive: 0.044
OPA1 isoform 2 (UniProt O60313),inactive: -0.017,inactive: 0.002,inactive: -0.096,inactive: -0.013,inactive: -0.002,active: -0.248,inactive: 0.03,inactive: 0.023,inactive: -0.073,inactive: 0.048,inactive: 0.026,inactive: -0.008,inactive: -0.07,inactive: 0.007,inactive: 0.018,inactive: 0.055,inactive: -0.035,inactive: 0.025,inactive: 0.016,inactive: -0.012
OGFR (UniProt Q9NZT2),inactive: 0.014,inactive: -0.012,inactive: 0.052,inactive: 0.128,inactive: -0.008,inactive: -0.062,inactive: -0.043,inactive: -0.012,inactive: 0.043,inactive: -0.037,inactive: -0.016,inactive: 0.021,inactive: -0.022,inactive: -0.005,inactive: 0.042,inactive: -0.004,inactive: 0.04,inactive: 0.02,inactive: -0.001,inactive: 0.028
PABPN1 (UniProt Q86U42),inactive: -0.034,inactive: -0.034,inactive: 0.136,inactive: 0.043,inactive: 0.096,inactive: -0.196,inactive: -0.038,inactive: -0.044,inactive: -0.097,inactive: 0.162,inactive: -0.119,inactive: 0,inactive: 0.019,inactive: 0.031,inactive: 0.016,inactive: 0.07,inactive: 0.073,inactive: -0.08,inactive: -0.057,
PAIP2 (UniProt Q9BPZ3),inactive: 0.013,inactive: -0.036,inactive: 0.021,inactive: -0.008,inactive: -0.04,inactive: 0.022,inactive: 0.035,inactive: 0.043,inactive: 0.073,inactive: 0.02,inactive: 0.136,inactive: 0.062,inactive: -0.047,inactive: -0.009,inactive: -0.049,inactive: 0.007,inactive: -0.1,inactive: -0.087,inactive: -0.02,inactive: -0.018
PAGR1 (UniProt Q9BTK6),inactive: -0.062,inactive: 0.017,inactive: 0.02,inactive: 0.018,inactive: 0.048,inactive: -0.033,inactive: -0.061,inactive: 0.056,inactive: 0.021,inactive: -0.16,inactive: -0.074,inactive: 0.011,inactive: -0.023,inactive: 0.043,inactive: -0.08,inactive: -0.057,inactive: -0.075,inactive: 0.064,inactive: 0.142,inactive: -0.135
OGT (UniProt O15294),inactive: -0.006,inactive: -0.038,inactive: -0.038,inactive: -0.016,inactive: -0.016,inactive: -0.086,inactive: 0.016,inactive: 0.009,inactive: -0.011,inactive: -0.029,inactive: 0.018,inactive: 0.01,inactive: -0.027,inactive: -0.002,inactive: 0.041,inactive: -0.067,inactive: -0.012,inactive: 0.026,inactive: 0.009,inactive: -0.023
PALMD (UniProt Q9NP74),inactive: 0.047,inactive: -0.071,inactive: 0.039,inactive: -0.056,inactive: 0.031,inactive: 0.051,inactive: -0.027,inactive: -0.001,inactive: 0.063,inactive: -0.041,inactive: -0.036,inactive: 0.061,inactive: 0.013,inactive: -0.037,inactive: 0.051,inactive: 0.016,inactive: -0.128,inactive: -0.013,inactive: 0,inactive: 0.084
PAIP1 (UniProt Q9H074),inactive: 0.008,inactive: -0.038,inactive: 0.028,inactive: -0.061,inactive: -0.028,inactive: 0.038,inactive: 0.009,inactive: -0.007,inactive: -0.02,inactive: 0.007,inactive: 0.01,inactive: -0.006,inactive: 0.067,inactive: 0.016,inactive: 0.054,inactive: 0.054,inactive: 0.004,inactive: -0.041,inactive: -0.017,inactive: -0.001
OSBPL6 isoform 5 (UniProt Q9BZF3),inactive: 0.077,inactive: 0.008,active: 0.367,inactive: -0.003,inactive: -0.003,inactive: 0.033,inactive: 0.036,inactive: 0.005,inactive: 0.32,inactive: 0.004,inactive: 0.281,inactive: 0.018,inactive: -0.082,inactive: -0.045,inactive: 0.036,inactive: -0.07,inactive: -0.003,inactive: 0.122,inactive: 0.007,inactive: -0.238
OSBPL11 (UniProt Q9BXB4),inactive: -0.021,inactive: -0.094,inactive: 0.042,inactive: 0.008,inactive: 0.007,inactive: -0.068,inactive: -0.077,inactive: -0.079,inactive: 0.039,inactive: 0.004,inactive: -0.027,inactive: 0.058,inactive: -0.181,inactive: 0.008,inactive: 0.004,inactive: -0.023,inactive: 0.128,inactive: 0.02,inactive: -0.019,inactive: -0.004

# From the supplement of paper PMC10849652
